Results: the supplement of paper PMC10470496
Counter-ions that a name gives are not always drawn. The list shows a part of the results. Single values are uncertain, as repeats are few or missing.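 The three strains are clinical Candida auris isolates from the CDC resistance isolate bank, from clades III, IV and I, grown in RPMI-1640 at 35°C. Growth is background-corrected OD600 relative to vehicle-only wells on the same plate; a hit meant over 50% inhibition in at least two strains plus a plate-corrected B-score above 0.1.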

system: C. auris AR-384; assay: growth relative to vehicle control (OD600 ratio) (fraction); higher = less inhibition; conditions: 1 µM; 24 h

Compared with Cc1nc(Nc2ncc(C(=O)Nc3c(C)cccc3Cl)s2)cc(N2CCN(CCO)CC2)n1 [Dasatinib Monohydrate], CCN1CCN(Cc2ccc(Nc3ncc(F)c(-c4cc(F)c5nc(C)n(C(C)C)c5c4)n3)nc2)CC1 is lower in growth: 1.03 for the first, 0.92 for the second.

Compared with Cc1c(Cl)cccc1Nc1ccccc1C(=O)O [Tolfenamic Acid], Cc1cccc(Nc2ccccc2C(=O)O)c1C [Mefenamic Acid] is higher in growth: 0.68 for the first, 1.11 for the second.

Compared with C[N+]1(C)CCC(OC(=O)C(O)(c2ccccc2)C2CCCC2)C1 (stereo not given) [Glycopyrrolate], C[N+]1(C)[C@@H]2C[C@@H](OC(=O)C(O)(c3cccs3)c3cccs3)C[C@H]1[C@@H]1O[C@@H]12 [Tiotropium Bromide hydrate] is lower in growth: 1.1 for the first, 0.86 for the second.

Going from Cc1cc2c(s1)Nc1ccccc1N=C2N1CCN(C)CC1 [Olanzapine] to Cc1nc(=O)c2cc(CN(C)c3ccc(C(=O)N[C@@H](CCC(=O)O)C(=O)O)s3)ccc2[nH]1 [Raltitrexed], the growth rises from 0.97 to 1.14.

Compared with CCC(=O)O[C@]1(C(=O)CCl)[C@@H](C)C[C@H]2[C@@H]3C[C@H](F)C4=CC(=O)C=C[C@]4(C)[C@@]3(F)[C@@H](O)C[C@@]21C [Halobetasol Propionate], C[C@@H](O)[C@H]1C(=O)N2C(C(=O)O)=C(S[C@@H]3CN[C@H](C(=O)N(C)C)C3)[C@H](C)[C@H]12 [Meropenem] is higher in growth: 0.91 for the first, 0.93 for the second.

First: CN(C)c1nc(N(C)C)nc(N(C)C)n1 [Altretamine]
Second: Cc1nc(C)c(Cl)c(O)c1Cl [Clopidol]
The growth of the first is lower: 0.81 for the first, 1.07 for the second.

First: Cc1cn([C@@H]2C[C@@H](O)[C@H](CO)O2)c(=O)[nH]c1=O [Telbivudine]
Second: COc1cc(C(=O)NC2CCCNC2)cc(OC)c1OC (stereo not given) [Troxipide]
The growth of the first is higher: 1.1 for the first, 0.84 for the second.

Compared with O=C(CCNNC(=O)c1ccncc1)NCc1ccccc1 [Nialamide], CC(CCc1ccccc1)NCC(O)c1ccc(O)c(C(N)=O)c1 (stereo not given) [Labetalol HCl] is lower in growth: 1.21 for the first, 0.96 for the second.

Going from CCCN[C@H]1CCc2nc(N)sc2C1 [Pramipexole] to CC1CCC(C(C)C)C(O)C1 (single isomer, unassigned; (-)) [(-)-Menthol], the growth rises from 1.13 to 1.16.

Going from Cc1cccc(C)c1OCC(=O)N[C@@H](Cc1ccccc1)[C@@H](O)C[C@H](Cc1ccccc1)NC(=O)[C@H](C(C)C)N1CCCNC1=O [Lopinavir] to COC(c1ccccc1)(c1ccccc1)[C@H](Oc1nc(C)cc(C)n1)C(=O)O [Ambrisentan], the growth falls from 0.96 to 0.82.

Going from CCCCc1nc(Cl)c(CO)n1Cc1ccc(-c2ccccc2-c2nnn[nH]2)cc1 [Losartan Potassium (DuP 753)] to OCc1cc(C(O)CNCCCCCCOCCCCc2ccccc2)ccc1O (stereo not given) [Salmeterol Xinafoate], the growth rises from 0.98 to 1.08.

First: CC[C@]1(O)C[C@H]2CN(CCc3c([nH]c4ccccc34)[C@@](C(=O)OC)(c3cc4c(cc3OC)N(C=O)[C@H]3[C@@](O)(C(=O)OC)[C@H](OC(C)=O)[C@]5(CC)C=CCN6CC[C@]43[C@@H]65)C2)C1 [Vincristine sulfate]
Second: CCOC(=O)C1=C(C)NC(C)=C(C(=O)OCC)C1c1ccccc1/C=C/C(=O)OC(C)(C)C [Lacidipine]
The growth of the first is lower: 0.89 for the first, 1.04 for the second.

Compared with CC#C[C@]1(O)CC[C@H]2[C@@H]3CCC4=CC(=O)CCC4=C3[C@@H](c3ccc(N(C)C)cc3)C[C@@]21C [Mifepristone], C#C[C@]1(OC(C)=O)CC[C@H]2[C@@H]3CCC4=C[C@@H](OC(C)=O)CC[C@@H]4[C@H]3CC[C@@]21C [Ethynodiol diacetate] is lower in growth: 0.88 for the first, 0.75 for the second.

Compared with O=C1OCCN1/N=C/c1ccc([N+](=O)[O-])o1 [Furazolidone], Cn1c([N+](=O)[O-])cnc1COC(N)=O [Ronidazole] is higher in growth: 1.05 for the first, 1.1 for the second.

Going from CN(C)[C@@H]1C(O)=C(C(N)=O)C(=O)[C@@]2(O)C(O)=C3C(=O)c4c(O)cccc4[C@@](C)(O)[C@H]3[C@H](O)[C@@H]12 [Oxytetracycline (Terramycin)] to CCOC(=O)C1=C(C)NC(C)=C(C(=O)OC)C1c1cccc(Cl)c1Cl (stereo not given) [Felodipine], the growth rises from 0.77 to 0.93.

Compared with CC(O)(P(=O)(O)O)P(=O)(O)O [Etidronate], CC(=O)N[C@@H](CCC(N)=O)C(=O)O [Aceglutamide] is lower in growth: 0.84 for the first, 0.74 for the second.

Going from Brc1c(NC2=NCCN2)ccc2nccnc12 [Brimonidine Tartrate] to C[C@H](Cc1cc2c(c(C(N)=O)c1)N(CCCO)CC2)NCCOc1ccccc1OCC(F)(F)F [Silodosin], the growth rises from 0.83 to 1.06.

Going from CC[C@@H]([C@H](C)O)n1ncn(-c2ccc(N3CCN(c4ccc(OC[C@@H]5CO[C@@](Cn6cncn6)(c6ccc(F)cc6F)C5)cc4)CC3)cc2)c1=O [Posaconazole] to O=C(O)c1cc(=O)c2c(OCC(O)COc3cccc4oc(C(=O)O)cc(=O)c34)cccc2o1 [Disodium Cromoglycate], the growth rises from 0.32 to 1.19.

Compared with Cc1cn[nH]c1 [Fomepizole], COc1ccc2c(c1)c(CC(=O)OCC(=O)O)c(C)n2C(=O)c1ccc(Cl)cc1 [Acemetacin] is lower in growth: 1.01 for the first, 0.98 for the second.

Going from CC(C(=O)O)c1ccc(-c2ccccc2)c(F)c1 (stereo not given) [Flurbiprofen] to CCC(NC(C)C)C(O)c1ccc(O)c(O)c1 (stereo not given) [Isoetharine Mesylate], the growth falls from 0.94 to 0.86.
